{
  "sequences": {"note": "Chains of the proteins cited; added tags and fusions are not shown. Lines headed by an entry give the natural chain unless they say otherwise; changes in a name come on top. Residues count along the entry.", "UniProt P25445, residues 26-173": "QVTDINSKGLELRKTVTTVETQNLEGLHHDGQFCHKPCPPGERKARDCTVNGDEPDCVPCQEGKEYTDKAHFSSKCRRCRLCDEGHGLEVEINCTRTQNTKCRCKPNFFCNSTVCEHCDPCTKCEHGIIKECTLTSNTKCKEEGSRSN", "UniProt P08581, residues 25-307": "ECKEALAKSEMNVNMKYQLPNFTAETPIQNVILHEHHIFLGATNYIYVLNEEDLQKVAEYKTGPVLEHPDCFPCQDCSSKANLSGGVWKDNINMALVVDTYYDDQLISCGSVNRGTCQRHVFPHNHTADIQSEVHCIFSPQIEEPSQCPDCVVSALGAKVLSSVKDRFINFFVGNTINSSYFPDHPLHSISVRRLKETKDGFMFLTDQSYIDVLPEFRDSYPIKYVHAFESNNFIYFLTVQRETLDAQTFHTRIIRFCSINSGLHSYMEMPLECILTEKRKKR"},
  "source": "patent US20080280834A1",
  "about": "“Compounds and methods for inhibiting apoptosis” (University of Pittsburgh of the Commonwealth System of …, priority 2005, published 2008)",
  "molecular_target": "Recombinant Human Fas/TNFRSF6/Fc Chimera (human) (UniProt P25445)",
  "experiment": "initial studies, method not described",
  "note": "No constants are given. Whether binding was seen depends on the method and setting. Some results given as binding are weak or reduced against the parent protein; the word gives no strength.",
  "data": [
    {"substance": "α-Met (from UniProt P08581 25-307) (receptor)", "values": [
      {"measurement": "binding", "result": "binds"}
    ]}
  ]
}
